Results are given in words; binding and its absence hold for the method and conditions named. In cells and extracts the contact can be indirect. Some entries that bind do so weakly or less than the wild type.
Molecular target: T1, Retinoid x receptor alpha (RXRα), mouse (mouse) (UniProt P28700)
T1 sequence: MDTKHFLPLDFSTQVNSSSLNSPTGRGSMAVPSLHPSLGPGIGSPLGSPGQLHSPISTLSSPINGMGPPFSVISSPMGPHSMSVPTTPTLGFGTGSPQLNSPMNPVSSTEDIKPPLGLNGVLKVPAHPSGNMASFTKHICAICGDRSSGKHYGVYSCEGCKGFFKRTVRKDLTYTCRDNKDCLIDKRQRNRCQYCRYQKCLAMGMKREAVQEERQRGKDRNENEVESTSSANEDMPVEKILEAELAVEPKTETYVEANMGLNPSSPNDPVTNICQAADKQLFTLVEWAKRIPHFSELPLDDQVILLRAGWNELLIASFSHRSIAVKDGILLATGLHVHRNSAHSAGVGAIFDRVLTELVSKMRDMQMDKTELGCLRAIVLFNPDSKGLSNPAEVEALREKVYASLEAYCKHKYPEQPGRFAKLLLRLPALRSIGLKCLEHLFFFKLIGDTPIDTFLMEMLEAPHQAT
Assay: co-IP; nuclear extracts of transfected COS-7 cells (10 μM Wy for 48 h), no DNA; 25 mM HEPES pH 7.9, 200 mM KCl, 1 mM EDTA, 0.5% NP-40, 10% glycerol; 2 μg PPARα or RXRα antibody at 4°C for 12 h, protein G-Sepharose; Western blot with anti-HNF4α antibody

B1: Hepatocyte nuclear factor-4 alpha (HNF4α), wild type, human (protein, UniProt P41235-2 1-464)
chain: MRLSKTLVDMDMADYSAALDPAYTTLEFENVQVLTMGNDTSPSEGTNLNAPNSLGVSALCAICGDRATGKHYGASSCDGCKGFFRRSVRKNHMYSCRFSRQCVVDKDKRNQCRYCRLKKCFRAGMKKEAVQNERDRISTRRSSYEDSSLPSINALLQAEVLSRQITSPVSGINGDIRAKKIASIADVCESMKEQLLVLVEWAKYIPAFCELPLDDQVALLRAHAGEHLLLGATKRSMVFKDVLLLGNDYIVPRHCPELAEMSRVSIRILDELVLPFQELQIDDNEYAYLKAIIFFDPDAKGLSDPGKIKRLRSQVQVSLEDYINDRQYDSRGRFGELLLLLPTLQSITWQMIEQIQFIKLFGMAKIDNLLQEMLLGGSPSDAPHAHHPLHPHLMQEHMGTNVIVANTMPTHLSNGQMSTPETPQPSPPGGSGSEPYKLLPGAVATIVKPLSAIPQPTITKQEVI
- binding: binds

Reference: article PMC3061263
